The values below come from PubChem BioAssay AID2685 (National Center for Advancing Translational Sciences (NCATS), 2010).

The list shows a part of the results. Shown are side measurements of this screen, not its main read-out; they come without a call. Compounds called inactive in the main read-out are mostly missing here. Potencies come from curve fits of mixed quality, noted in brackets.

The assay in a line: qHTS Assay for Lipid Storage Modulators in Drosophila S3 Cells.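 On cell number change: cells counted by Cell Tracker Red CMTPX staining in the red channel.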 As to conditions: BODIPY lipid droplet fluorescence, 18-24 h; for cell number change: measured here: cell count max response, cells fed with added oleic acid. The method, boiled down:
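Laser-scanning cytometry quantifies lipid droplet accumulation (500–530 nm total intensity; droplet/cell object ratio) in oleic acid-fed (400 uM added) Drosophila S3 cells treated with a concentration series. 20 uM Triacsin C defined 100% inhibition.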

The mark [1] stands for this setting: measured here: lipid fluorescence (Fed channel) AC50, cells fed with added oleic acid.
The mark [2] stands for this setting: measured here: cell number channel AC50, cells fed with added oleic acid.

Broadly, the AC50 is the midpoint of the concentration-response curve, whichever way the signal moves. Read a low AC50 as greater potency. For the compound `Oc1cc2c(cc1CN1CCc3ccccc3C1)OCO2`, the cell number change was determined as 20.2%. For the same compound, the AC50 under setting [1] was 18.4 µM [rising, single point].
As for `CSc1ccc(C(=O)N2CCC(CCC(=O)NC3CC3)CC2)cc1`, the cell number change was -4.01%.
Turning to `Cc1ccc(NC(=O)c2ccco2)c(NC(=O)CN2C(=O)c3ccccc3C2=O)c1`, under setting [2], the AC50 is 6.51 µM [falling, single point].
On to `O=C(c1ccccc1)c1cc([N+](=O)[O-])ccc1N1CCCC1`, for which the cell number change turned out to be 87.3%. Besides, the concentration at half-maximal activity (AC50) under setting [1] was 16.4 µM [rising, single point].
As to `NC(=O)CSc1cn(Cc2cccc(F)c2)c2ccccc12`, the cell number change amounted to 42.2%. The concentration at half-maximal activity (AC50) under setting [2] was 2.59 µM [rising, full curve]. Besides, the concentration at half-maximal activity (AC50) under setting [1] is 2.31 µM [rising, partial curve, poor fit].
Regarding `Cc1csc2nc(CNS(=O)(=O)c3ccc(-c4ccccc4)cc3)cn12`, the cell number change is -23.6%. For the same compound, the half-maximal activity concentration (AC50) under setting [1] is 11.6 µM [falling, partial curve].
For the compound `N#Cc1ccc(C(=O)Nc2cc(S(=O)(=O)N3CCCC3)ccc2OCC(F)(F)F)cc1`, the cell number change stood at 2.54%. Also, under setting [1], the AC50 was 1.84 µM [rising, partial curve, poor fit].
For the compound `O=C(OCc1nc2ccsc2c(=O)[nH]1)c1cc(Br)c(Br)s1`, the cell number change was -8.12%. Further, the half-maximal activity concentration (AC50) under setting [1] was 0.651 µM [falling, single point].
For the compound `O=C(NCCSc1ccccc1)c1ccc(Br)cc1`, the cell number change worked out at 2.81%. In addition, under setting [1], the AC50 is 20.6 µM [rising, single point].
As for `CCn1cc([N+](=O)[O-])c(C(=O)N2N=C(c3ccc(Cl)c(Cl)c3)CC2c2ccccc2O)n1` (stereo not given), the cell number change is -49.5%. In addition, the AC50 under setting [2] was 29.1 µM [falling, single point]. For the same compound, the concentration at half-maximal activity (AC50) under setting [1] is 29.1 µM [falling, single point].
As for `Cc1ccc(-n2c(O)c(C=Nc3ccccc3-c3n[nH]c(=S)[nH]c3=O)c3ccccc3c2=O)cc1C`, the cell number change was -2.52%.
As for `CC(NS(=O)(=O)c1ccc2c(c1)oc(=O)n2C)c1ccccc1` (stereo not given), the cell number change was 16.2%. Moreover, under setting [1], the AC50 was 29.1 µM [rising, single point].
With `O=C(NCc1cccs1)c1cc(-c2cccc(Cl)c2)on1`, the cell number change is -2.57%. Further, the half-maximal activity concentration (AC50) under setting [1] was 1.84 µM [rising, full curve, poor fit].
For the compound `CC(Sc1nnnn1C)C(=O)Nc1ncc(Cl)cc1Cl` (stereo not given), the cell number change is -1.83%. Further, the half-maximal activity concentration (AC50) under setting [1] is 16.4 µM [falling, partial curve].
With `CC(/C=C/c1ccc(N(C)C)cc1)=N/N=C1/NC(=O)CC(C(=O)Nc2ccc(Cl)cc2)S1` (stereo not given), the cell number change is -6.34%. In addition, the concentration at half-maximal activity (AC50) under setting [1] is 18.4 µM [rising, single point].
For the compound `Cc1ccc(S(=O)(=O)c2cccc(S(=O)(=O)N3CCCC3)c2)cc1S(=O)(=O)N1CCCC1`, the cell number change came to 4.29%. Under setting [2], the AC50 was 0.411 µM [falling, single point]. For the same compound, the concentration at half-maximal activity (AC50) under setting [1] was 0.206 µM [falling, full curve].
Regarding `CC(Sc1n[nH]c(=O)[nH]c1=O)C(=O)OCc1ccccc1` (stereo not given), the cell number change was 4.89%. For the same compound, the half-maximal activity concentration (AC50) under setting [1] is 6.51 µM [falling, single point].
For `Cn1nc(C(=O)NNC(=O)COc2ccccc2)c2ccccc2c1=O`, the half-maximal activity concentration (AC50) under setting [1] is 16.4 µM [rising, partial curve].
Turning to `c1ccc(CCc2ccccc2-c2nc(-c3ccccn3)no2)cc1`, the concentration at half-maximal activity (AC50) by setting is: under setting [2], 1.16 µM [rising, partial curve]; under setting [1], 1.46 µM [rising, partial curve].
For the compound `O=C(Cc1ccccc1)Nc1ccccc1N1CCCC1`, the cell number change was 16.2%.
Turning to `COCCn1c(N)c(Sc2ccc(Cl)cc2)c(=O)[nH]c1=O`, the cell number change is -10.5%. Besides, under setting [1], the AC50 is 6.51 µM [falling, single point].
For `CC(Oc1ccc(Br)cc1)C(=O)NCC(c1ccco1)N1CCCCC1` (stereo not given), the cell number change came out at 26.5%.
For the compound `OC(CNCC1CCCO1)Cn1c2ccc(Br)cc2c2cc(Br)ccc21` (stereo not given), the cell number change is -79.1%. The AC50 under setting [2] was 25.9 µM [falling, single point]. Moreover, the AC50 under setting [1] is 29.1 µM [falling, single point].
`COC(=O)[C@H](CC(C)C)NC(=O)NCc1ccc(Cl)cc1`: the cell number change amounted to 12.2%.
In the case of `CC(=O)Nc1ccc(S(=O)(=O)NCCCc2ccccc2)cc1`, the cell number change amounted to 12.9%. For the same compound, the half-maximal activity concentration (AC50) under setting [1] was 3.26 µM [rising, single point].
For `O=C(OCC(=O)N1CCCCC1)c1c[nH]c(=O)[nH]c1=O`, the cell number change was -27.8%. In addition, under setting [1], the half-maximal activity concentration (AC50) is 0.291 µM [falling, full curve].
On to `CCOc1cc(N2CCOCC2)c(OCC)cc1NC(=O)c1nc2nc(C)cc(C)n2n1`, for which the cell number change was 19%. In addition, under setting [1], the AC50 is 0.146 µM [rising, full curve, poor fit].
In the case of `CCOc1ccc(Cl)cc1CNCCNCCO`, the cell number change was -14.9%.
As for `Cc1cc(Br)ccc1SCC(=O)NCC(c1ccco1)N1CCCCC1` (stereo not given), the cell number change amounted to 42.7%. Besides, the AC50 under setting [2] was 16.4 µM [rising, single point].
Turning to `Cc1cc(C)n(CC(=O)N2N=C(C(F)F)CC2(O)C(F)F)n1` (stereo not given), the AC50 by setting is: under setting [2], 3.66 µM [rising, partial curve, poor fit]; under setting [1], 6.51 µM [rising, single point].
For the compound `CC(=O)Oc1cccc(C(=O)Nc2cccc(C(=O)Nc3ccccc3C(=O)O)c2)c1`, the cell number change was found to be 11%.
Turning to `Cc1cc(Nc2ccccc2)nn1C(=O)c1ccc(Cl)cc1`, the cell number change turned out to be 53.5%. Besides, under setting [2], the AC50 was 7.31 µM [rising, partial curve].
As to `COc1ccc(/C(O)=C2\C(=O)C(=O)N(CCCN(C)C)C2c2ccccc2F)cc1Cl` (stereo not given), the cell number change is 3.36%. In addition, the concentration at half-maximal activity (AC50) under setting [1] is 0.116 µM [falling, full curve, poor fit].
With `CCO[C@@H]1OC(C(=O)NCc2ccccc2)=C[C@H](C2CCCCC2)[C@H]1CCCO`, the cell number change was -10.3%. Besides, the AC50 under setting [1] was 6.51 µM [rising, single point].
Take `O=C(COC(=O)c1ccc2c(c1)C(=O)N(Cc1ccncc1)C2=O)Nc1cccc2ccccc12`: the cell number change was -3.18%.
On the same count and under the same terms, to `O=C(Nc1ccc(S(=O)(=O)NCc2ccco2)cc1)c1ccc(F)cc1` belongs 5.56%.
As for `Nn1c(SCc2ccccc2)nc2ccccc21`, under setting [1], the concentration at half-maximal activity (AC50) was 29.1 µM [falling, single point].
Take `COc1cccc(-c2cc(C(=O)NCC3CCCO3)on2)c1` (stereo not given): the cell number change was found to be 15%. The AC50 under setting [2] was 5.8 µM [rising, single point].
`Cc1cc2cc(CN(Cc3cccs3)Cc3nnnn3CC3CCCO3)c(=O)[nH]c2cc1C` (stereo not given): the cell number change worked out at 17.1%. For the same compound, the half-maximal activity concentration (AC50) under setting [2] was 1.46 µM [rising, partial curve, poor fit].
As to `Cc1ccc(NC(=O)n2ccc(-c3ccc(-n4ccnc4)cc3)n2)cc1`, the concentration at half-maximal activity (AC50) runs as follows: under setting [2], 0.58 µM [rising, single point]; under setting [1], 0.58 µM [rising, single point].
For the compound `CCCC(C(=O)NC1CCCC1)N(Cc1ccc2c(c1)OCO2)C(=O)c1snc(C(N)=O)c1N` (stereo not given), the AC50 under setting [1] was 0.291 µM [rising, partial curve, poor fit].
With `Brc1ccccc1OCCOc1cccc2cccnc12`, the cell number change worked out at 17.2%. The AC50 under setting [1] was 2.31 µM [falling, partial curve, poor fit].
As for `COc1ccc(CCN2CC(C(=O)N(C)Cc3ccc4nsnc4c3)CCC2=O)cc1` (stereo not given), the cell number change turned out to be 11.4%.
`O=C(/C=C/c1ccccc1Cl)Nc1ccc(S(=O)(=O)Nc2ncccn2)cc1`: the cell number change stood at 39.1%. Besides, under setting [2], the AC50 was 0.00461 µM [rising, full curve, poor fit]. Moreover, the half-maximal activity concentration (AC50) under setting [1] is 0.00461 µM [rising, full curve, poor fit].
`COc1ccc(C2CC(c3ccc4ccccc4c3OC(C)=O)=NN2C(=O)/C=C/c2ccccc2)cc1` (stereo not given): under setting [1], the AC50 was 5.17 µM [falling, partial curve].
Consider `COc1ccc(-c2cc(C(=O)N3CCN(C(c4ccccc4)c4ccccc4)CC3)no2)cc1OC`, for which the cell number change is -9.38%. For the same compound, under setting [2], the concentration at half-maximal activity (AC50) is 0.116 µM [falling, full curve, poor fit]. Also, the half-maximal activity concentration (AC50) under setting [1] was 0.116 µM [falling, full curve, poor fit].
`Cc1c(NC(=O)C(C)C)cccc1-c1nc2ncccc2o1`: the cell number change is -6.08%.
Regarding `CN(C)c1nc(C(N)=O)nc(N2CCOCC2)n1`, the cell number change was -2.08%. Also, the AC50 under setting [2] is 0.731 µM [falling, full curve]. The AC50 under setting [1] is 6.51 µM [falling, single point].
As for `O=C(NC(Cc1ccccc1)C(=O)O)c1ccc(S(=O)(=O)N2CCCCC2)cc1` (stereo not given), the cell number change was -101%. For the same compound, the AC50 under setting [2] was 23.1 µM [falling, partial curve]. Under setting [1], the AC50 was 16.4 µM [falling, single point].
For `O=C(Nc1cccc(C(=O)Nc2ccc(Cl)cn2)c1)c1ccccc1`, the cell number change was determined as 47%.
Take `O=C(CN1CCN(C(C(=O)Nc2ccc(F)cc2)c2ccccc2)CC1)NC1CC1` (stereo not given): the cell number change amounted to 8.05%. Further, the AC50 under setting [1] is 6.51 µM [rising, single point].
As for `COc1ccccc1CN(Cc1ccco1)S(=O)(=O)c1ccc(-n2cnnn2)c(OC)c1`, the cell number change was -8.28%. Besides, under setting [1], the AC50 was 6.51 µM [rising, partial curve, poor fit].
For `CN(C)/C=C/C(=O)c1cnc(-c2cccc(Cl)c2)s1`, the concentration at half-maximal activity (AC50) under setting [1] is 0.13 µM [rising, full curve, poor fit].
Take `Cc1cccc(-c2nc(CN3CCN(Cc4cccc(F)c4)CC3)c(C)o2)c1`: the cell number change came to 2.05%. Besides, the AC50 under setting [1] is 6.51 µM [rising, single point].
In the case of `CCOc1ccc(NC(=S)N2CCN(C/C=C/c3ccccc3)CC2)cc1`, the AC50 is, setting by setting: under setting [2], 2.06 µM [rising, partial curve]; under setting [1], 6.51 µM [rising, single point].
Consider `Oc1c(Cl)cc(Cl)cc1CNc1ccccn1`, for which the cell number change came out at 4.21%. Further, the half-maximal activity concentration (AC50) under setting [1] is 23.1 µM [falling, single point].
Consider `Cc1sc(NC(=S)NC(=O)C2CCCCC2)c(C(N)=O)c1C`, for which the cell number change is -2.82%.
For `O=C(CSc1nnc2ccccn12)Nc1cccc(-c2nc3ccccc3s2)c1`, the cell number change stood at 25.4%. Further, the concentration at half-maximal activity (AC50) under setting [1] was 1.16 µM [rising, partial curve].
`CC(C(=O)OCC(=O)Nc1ccc2c(c1)OCO2)N1C(=O)c2ccccc2C1=O` (stereo not given): the cell number change was 14.9%. Under setting [1], the AC50 was 29.1 µM [rising, partial curve, poor fit].
For the compound `CCOc1ccccc1NC(=O)Cn1nnc(C(=O)NCc2cccs2)c1N`, the cell number change was 10.7%.
Still for that read-out and setting: to `COC(=O)C1=C(N)OC2=C(C(=O)CC(C)(C)C2)C1c1cccnc1` (stereo not given) belongs -19.9%; to `CCOc1ccccc1NC(=O)c1cc(-c2ccncc2)nc2c(Cl)cccc12`, 28.3%.
